Results reported in PubChem BioAssay AID493014 (National Center for Advancing Translational Sciences (NCATS), 2011).
Screen size: about 340,000 compounds; about 170 (0.05%) were called active. The inconclusive results got no clear call from the source; some entries with a clear call stand among them for comparison. Calls come from the whole dose curve; as a rule, active = well fitted inhibition curve with a large enough effect in the signal ratio, with a control signal flat (not every such curve was filed as active); inconclusive = small, poorly fitted or top-dose-only effect, or effect the other way, or a change in a side signal; inactive = flat fitted curve, though single readings scatter; the % refers to the signal ratio. Where the call is inconclusive, the potency comes from a doubtful curve fit.

assay: qHTS Assay to Find Inhibitors of Chronic Active B-Cell Receptor Signaling; conditions: ABC-DLBCL IkBa-CBG/CBR reporter, luminescence ratio (green luciferase fused to IkBa over red control in TMD8 lymphoma cells), 4 h; activity change, negative = inhibition: at 46.1 µM (top of the series) unless noted;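 for activity change, negative = inhibition: plate controls were basal doxycycline-induced cells for no effect and cells given 10 µM MG132 for full effect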
Outline: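 Cell line TMD8 (human ABC DLBCL), stably expressing tet-inducible CBG68-IkBa fusion and CBR; IMDM/0.5% FBS; cpd up to 46 uM; dox induction, 4 h, 37C/5% CO2; dual luminescence; green/red ratio; MG132 control.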
Potency is the fitted concentration of half-maximal effect.

Structure (SMILES) | activity change, negative = inhibition | Potency
O=C(c1cccc(N2C(=O)C3CC=CCC3C2=O)c1)N1CCN(c2ccccc2)CC1 (stereo not drawn) | inconclusive: -3.92% | –
Cc1ccc(C2=NCCn3nc4cc([N+](=O)[O-])ccc4c32)cc1 | inactive: 4.41% | –
C=C1CCC[C@]2(C)C[C@H]3OC(=O)C(CNC(CC)CO)[C@H]3CC12 (stereo partly drawn) | – | inconclusive: 35.5 µM [falling, single point]
CCOc1ccc(/C=C2\SC(=S)N(CCCC(=O)NCCCN3CCOCC3)C2=O)cc1 | – | inconclusive: 6.31 µM [falling, full curve]
Cc1ccc(NC(=O)N2CCCC2C(=O)Nc2ccc(-n3cnnn3)c(C)c2)cc1 (stereo not drawn) | inconclusive: 6.76% | –
CC(C(=O)Nc1cccc(Br)c1)c1ccc([N+](=O)[O-])cc1 (stereo not drawn) | – | inconclusive: 14.6 µM [activator, partial curve, poor fit]
COc1ccc(-c2nn(C)c(=O)c3ccccc23)cc1CNC(=O)C1CCCCC1 | inconclusive: -22.8% | –
O=C(O)COc1c(Cl)cc(/C=C2\NC(=O)NC2=O)cc1Br | inconclusive: 4.18% | –
N/C(=N\OC(=O)CC1CCCCC1)c1ccc(Cl)cc1 | inconclusive: 9.27% | –
CCNC(=O)c1ccccc1-c1nc(-c2ccccc2)no1 | inconclusive: 5.02% | –
O=C(Cc1ccccc1)O/N=C1\CCCc2ccccc21 | inactive: 8.74% | –
COc1ccc(-n2c(C)cc(C(=O)COC(=O)c3ccc(O)cc3O)c2C)cc1 | inconclusive: 15.9% | –
Cc1cccc(NS(=O)(=O)c2ccc(C)c(C(=O)OCC(=O)Nc3cc(C)on3)c2)c1 | inconclusive: -2.78% | –
CCC1Oc2ccccc2N(CC(=O)NCc2ccccc2)C1=O (stereo not drawn) | inactive: -13.7% | –
CCOc1cc(C(c2c(C)[nH][nH]c2=O)c2c(C)[nH][nH]c2=O)ccc1OS(=O)(=O)c1ccccc1 | inconclusive: -10.1% | –
COC(=O)c1ccc(Cn2nc([N+](=O)[O-])c(Br)c2C)cc1 | inactive: -22% | –
Cc1ccc(Sc2cc(NCCCO)c([N+](=O)[O-])c3nonc23)cc1 | inactive: 3.5% | –
NC(=O)CC(NC(=O)Cc1cccc2ccccc12)c1ccc(NCCc2ccccc2F)c([N+](=O)[O-])c1 (stereo not drawn) | inconclusive: -2.66% | –
CCC1CCCN1Cn1cnc2c([nH]c3ccc(C)cc32)c1=O (stereo not drawn) | inactive: 8.73% | –
CCC(=O)N1CCN(c2ccc(NC(=O)COc3ccccc3Cl)cc2)CC1 | inactive: 5.82% | –
C=CCOc1c(CNc2nccs2)cccc1OCC | inconclusive: 3.27% | –
CC1CCCN(S(=O)(=O)c2csc(C(N)=O)c2)C1 (stereo not drawn) | inactive: -13.2% | –
Cc1cc(-n2c(C)cc(C(=O)CSc3nnnn3-c3ccc(Cl)cc3)c2C)no1 | inconclusive: 11% | –
COc1ccc(C(=O)CSC#N)cc1OC | – | inconclusive: 22.4 µM [falling, single point]
COn1c(SC(C)C)nc2ccccc2c1=O | inactive: 2.64% | –
O=[N+]([O-])c1cccc(N=Cc2sc3ccccc3c2O)c1 | inconclusive: -3.31% | –
Cc1nn(CC(O)CN2c3ccccc3Sc3ccccc32)c(C)c1Br (stereo not drawn) | – | inconclusive: 16.4 µM [rising, partial curve, poor fit]

4 records picked at random from the list so far, as already listed:
Structure (SMILES) | activity change, negative = inhibition | Potency
Cc1ccc(NC(=O)N2CCCC2C(=O)Nc2ccc(-n3cnnn3)c(C)c2)cc1 (stereo not drawn) | inconclusive: 6.76% | –
Cc1ccc(C2=NCCn3nc4cc([N+](=O)[O-])ccc4c32)cc1 | inactive: 4.41% | –
CCOc1cc(C(c2c(C)[nH][nH]c2=O)c2c(C)[nH][nH]c2=O)ccc1OS(=O)(=O)c1ccccc1 | inconclusive: -10.1% | –
CCC1Oc2ccccc2N(CC(=O)NCc2ccccc2)C1=O (stereo not drawn) | inactive: -13.7% | –

(further entries)

Structure (SMILES) | activity change, negative = inhibition | Potency
O=C(N/N=C/c1ccccc1)c1ccc(-c2ccccc2)cc1 | inactive: 2.99% | –
Cc1ccc(N(CC(=O)Nc2ccc(F)c(Cl)c2)S(=O)(=O)c2c(C)noc2C)cc1 | inconclusive: 7.03% | –
Cn1c(SCc2cccc([N+](=O)[O-])c2)nc2c(c1=O)SCC2 | inconclusive: 7.74% | –
CCCNC(=O)c1nnsc1S(=O)(=O)c1ccc(Cl)cc1 | – | inconclusive: 12.6 µM [rising, partial curve, poor fit]
COc1ccc(CCNC(=O)COC(=O)CNS(=O)(=O)c2ccc(SC)c([N+](=O)[O-])c2)cc1 | inconclusive: 11.8% | –
Cc1ccccc1-n1c(-c2csc3ccccc23)n[nH]c1=S | – | inconclusive: 29.1 µM [falling, single point]
COc1cc2nc(=S)n3[nH]c(COc4ccccc4C)nc3c2cc1OC | inconclusive: -12.9% | –
O=C(Nc1nnc(CCN2CCCCC2)s1)C1CCCCC1 | inconclusive: 8.71% | –
Cc1cc[n+](-c2[nH]c(=O)sc2/C=N/N=C(\[O-])c2ccccc2)cc1C | – | inconclusive: 25.1 µM [falling, single point]
COC(=O)c1cccc(NC(=S)N2CCN(c3ccccc3F)CC2)c1 | inactive: -25.8% | –
Cn1nc(C(F)(F)F)cc1C(=O)Nc1ccc(Cl)cc1 | inconclusive: 5.74% | –
Cc1ccccc1NC(=O)c1ccc2c(c1)CCN2S(C)(=O)=O | – | inconclusive: 25.1 µM [falling, partial curve, poor fit]
COC(=O)c1c(C)oc(C)c1S(=O)(=O)NCC1CC1 | inconclusive: 0.2% | –
CCn1nc(C(=O)NNC(=O)c2ccccc2)c2ccccc2c1=O | inconclusive: -18.8% | –
O=C(O)C1OC(Oc2cc3oc(-c4ccccc4)cc(=O)c3c(O)c2O)C(O)C(O)C1O (stereo not drawn) | inconclusive: 9.7% | –
CC(=O)NC(c1ccco1)c1cc(Cl)c2ccccc2c1O (stereo not drawn) | – | inconclusive: 20.6 µM [falling, single point]
CCOC(=O)c1nc(S(C)(=O)=O)ncc1N1CCOCC1 | inactive: -2.37% | –
CCOc1ncccc1C(=O)OCc1c(F)cccc1Cl | inconclusive: -12.4% | –
CCOc1ccc2nc(NC(=O)c3cc([N+](=O)[O-])ccc3N3CCOCC3)sc2c1 | inconclusive: 7.17% | –
O=C(O)COc1ccccc1C(Nc1cccnc1)c1cc(Cl)c2cccnc2c1O (stereo not drawn) | inactive: 9.79% | –
COc1ccc(Cl)cc1S(=O)(=O)n1ccnc1C(C)C | – | inconclusive: 2.06 µM [falling, partial curve]
O=C(Oc1ccc(N(Cc2cccs2)C2=NS(=O)(=O)c3ccccc32)cc1)c1ccccc1 | inactive: -6.28% | –
C=CCOC(=O)C1=C(C)NC(SC)=C(C#N)C1c1ccc(OCC)cc1 (stereo not drawn) | – | inconclusive: 35.5 µM [falling, single point]
COC(=O)/C=C1\NCCNC1=O | inconclusive: 0.0073% | –
COCCn1c(C)cc(O)c(C(c2ccccc2)N2CCCCC2)c1=O (stereo not drawn) | inconclusive: 4.57% | –
CCCOc1ccc(NC(=O)CC2C(=O)N(CC)C(=S)N2Cc2cccs2)cc1 (stereo not drawn) | inactive: 9.52% | –
